Data: BigSolDB 2.1

Nc1ccc(S(N)(=O)=O)cc1
solubility (mole fraction)
Conditions	278.15 K	283.15 K	288.15 K	293.15 K	298.15 K	303.15 K	308.15 K	313.15 K	318.15 K
in acetone	0.0832	0.0857	0.0884	0.0912	0.0942	0.0975	0.101	0.105	0.11
in benzene	0.00067	0.000815	0.00098	0.00117	0.00138	0.00161	0.00186	0.00215	0.00246
in ethanol	0.00547	0.00656	0.0079	0.00953	0.0115	0.0139	0.0169	0.0205	0.0249
in ethyl acetate	9e-06	1e-05	1.3e-05	1.5e-05	1.9e-05	2.6e-05	3.3e-05	4.4e-05	6e-05
in isopropanol	0.000202	0.000364	0.000589	0.00102	0.00175	0.00232	0.00323	0.0042	0.00585
in methanol	0.0112	0.0136	0.0165	0.0199	0.0238	0.0286	0.0343	0.0408	0.0486
in n-butanol	0.0012	0.00134	0.00148	0.00168	0.00196	0.00227	0.00258	0.00304	0.00357
in n-octanol	0.000314	0.000352	0.000399	0.000454	0.000522	0.000605	0.000705	0.000828	0.000973
in n-propanol	0.000982	0.00129	0.00175	0.0023	0.00299	0.00365	0.00444	0.00536	0.00615
in sec-butanol	9.6e-05	0.000252	0.000377	0.000721	0.00094	0.00132	0.00169	0.00215	0.00277
in toluene	4e-06	6e-06	8e-06	1.1e-05	1.4e-05	1.7e-05	2.1e-05	2.5e-05	3e-05
in water	0.000314	0.000379	0.000495	0.000636	0.000813	0.00106	0.00134	0.00172	0.00216
